According to patent publication US20260098096A1:
These are yes or no findings as the source states them, for the method shown. Binding can be weak; no strength is given.

Legend:
[1] = molecular target: CCR8_8885 (human CCR8 with extracellular loop 3 of human CCR5) (human); assay: epitope mapping on transfected cells
[2] = molecular target: CCR8_8588 (human CCR8 with extracellular loop 1 of human CCR5) (human); assay: epitope mapping on transfected cells

- binding [1]: binds
- binding [2]: binds
B1: 2H8 anti-m/hCCR8 antibody (mouse hybridoma clone, isotype IgG2b) (antibody, V domains shown)
VH: EVQLQQSGPELVKPGASVKMSCKASGYTFTDYNMHWVKQSHGKSLEWIGYVNPNNGGTSYNQKFKGKATLTVNKSSSTAYMELRSLTSEDSAVYYCARWVLRRNFAYWGQGTLVTVSA
VL: DIVMTQSHKFMSTSVGDRVSITCKASQDVNTAVAWYQQKPGQSPKLLIYWASTRHTGVPDRFTGSGSGTDYTLTISSVQAEDLALYYCQQHYRNPYTFGGGTKLEIK
